The other results are listed elsewhere or left out. Shown are side measurements of this screen, not its main read-out; they come without a call. Compounds called inactive in the main read-out are mostly missing here. Words in brackets tell the shape of the fitted curve; partial curves, single points and poor fits give uncertain potencies.

This experiment can be described thus: qHTS Assay to Find Inhibitors of Chronic Active B-Cell Receptor Signaling. Conditions: ABC-DLBCL IkBa-CBG/CBR reporter, luminescence ratio (green luciferase fused to IkBa over red control in TMD8 lymphoma cells), 4 h. Summed up:
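Doxycycline induced both beetle luciferases in TMD8 lymphoma cells; IKK-driven degradation limits the IkappaBalpha-fused green signal, while red luminescence normalises for cell number and nonspecific effects. Compounds tested up to 46 uM, 4 hrs.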

The mark [1] stands for this setting: measured here: CBR red luminescence, cell number.
Setting [2] is: measured here: IkBa-CBG green luminescence.

Turning to `CCSc1nnc(NC(=O)CSc2ncccn2)s1`, the AC50 under setting [1] was 29.1 µM [falling, single point].
On the same count and under the same terms, with `Cc1ccc(-c2nc3cnccn3c2Nc2c(C)cccc2C)o1` the figure was 35.5 µM [falling, single point].
`Cc1[nH]c2ccc(F)cc2c1CCN(Cc1cccnc1)C(=S)Nc1cccc(F)c1`: under setting [1], the AC50 was 8.91 µM [falling, partial curve, poor fit].
As for `COc1ccc(CNc2nn[nH]n2)cc1OC`, the AC50 under setting [1] was 29.1 µM [rising, single point].
In the case of `O=c1oc(-c2ccc([N+](=O)[O-])cc2)nc2ccc(O)cc12`, the AC50 under setting [1] is 0.562 µM [falling, full curve].
Regarding `C=CCn1c(CSc2nc3ccccc3s2)n[nH]c1=S`, the AC50 under setting [2] is 20 µM [falling, single point].
Regarding `CCOC(=O)CCNC(=O)N1CCCC(C(=O)c2ccc3c(c2)OCO3)C1` (stereo not drawn), the AC50 under setting [1] is 15.8 µM [rising, partial curve].
On the same count and under the same terms, with `COc1cc(/C=N/Nc2ccc(F)cc2F)cc(OC)c1O` the figure was 4.11 µM [falling, full curve].
For the compound `CC(C)(C)c1cc(CP(=O)(c2ccccc2)c2ccccc2)cc(C(C)(C)C)c1O`, the AC50 is, setting by setting: under setting [1], 12.6 µM [falling, partial curve]; under setting [2], 7.94 µM [rising, partial curve, poor fit].
Turning to `CNC(=O)c1c(NC(=O)c2cc(-c3cc(C)c(C)cc3O)n[nH]2)sc2c1CCCC2`, the AC50 under setting [1] was 3.16 µM [rising, single point].
For the compound `FC(F)(F)c1cc(CO[C@@H]2CCCN[C@@H]2c2ccccc2)cc(C(F)(F)F)c1`, under setting [1], the AC50 is 29.1 µM [falling, single point].
On to `Cc1cc(C)nc(Sc2ncnc(N)c2[N+](=O)[O-])n1`, for which the AC50 under setting [1] is 7.94 µM [falling, partial curve].
With `CC(C)(C)OC(=O)NCc1ccc(CNC(=O)c2nc[nH]c2C(=O)N2CCN(C(=O)OC(C)(C)C)CC2)cc1`, the AC50 under setting [1] was 5.17 µM [falling, single point].
In the case of `COc1cccc(CN(C(=O)/C=C/c2ccco2)C2CCS(=O)(=O)C2)c1` (stereo not drawn), under setting [1], the AC50 is 12.6 µM [rising, partial curve, poor fit].
With `COc1cc(/C=C2/C(=O)ON=C2C)ccc1OCc1ccccc1F`, the AC50 under setting [1] is 10 µM [falling, partial curve, poor fit].
On the same count and under the same terms, in the case of `CCOc1ccc(N(CC(=O)NCc2ccc(Cl)cc2)S(=O)(=O)c2ccccc2)cc1` it was 12.6 µM [rising, partial curve, poor fit]; in that of `O=C(NC1CCC(O)CC1)C1CCN(S(=O)(=O)c2c(Cl)cccc2Cl)CC1` (stereo not drawn), 14.6 µM [rising, partial curve, poor fit].
